# Experimental data as given in the supplement of paper PMC12823440, “Inhibitors supercharge kinase turnover through native proteolytic circuits” (Nature, 2025).
# Amino acid sequences for entries named in this document (tags omitted). A change or cut given only in a name is not applied to a line headed by its entry.
# UniProt O96013: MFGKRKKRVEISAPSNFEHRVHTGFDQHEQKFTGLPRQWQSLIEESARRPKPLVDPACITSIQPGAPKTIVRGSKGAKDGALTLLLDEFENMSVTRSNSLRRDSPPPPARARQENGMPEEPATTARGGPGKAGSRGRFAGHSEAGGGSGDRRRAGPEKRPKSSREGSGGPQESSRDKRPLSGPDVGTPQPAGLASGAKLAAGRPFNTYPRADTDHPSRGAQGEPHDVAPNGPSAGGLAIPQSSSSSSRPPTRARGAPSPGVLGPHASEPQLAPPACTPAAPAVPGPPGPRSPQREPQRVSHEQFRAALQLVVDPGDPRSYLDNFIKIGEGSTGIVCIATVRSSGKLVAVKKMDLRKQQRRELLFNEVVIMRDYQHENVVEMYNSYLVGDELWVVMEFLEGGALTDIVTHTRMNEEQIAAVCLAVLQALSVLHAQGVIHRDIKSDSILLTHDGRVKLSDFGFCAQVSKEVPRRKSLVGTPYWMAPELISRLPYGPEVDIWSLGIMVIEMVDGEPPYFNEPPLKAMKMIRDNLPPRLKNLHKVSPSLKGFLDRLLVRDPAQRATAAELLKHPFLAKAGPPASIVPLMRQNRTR
# Counter-ions that a name gives are not always drawn. This is one part of the list. The calls rarely recur for the same compound in another form.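 Kinases were expressed as nanoluciferase fusions in K562 cells and luminescence was read every 4 h between 2 and 18 h as percent of control, DMSO set to 100% and a positive control to 0%. A time point counts as decreased when the signal drops significantly (2 sigma). The hit call is the authors' own, does not follow from the count of time points alone, and its rule is not shown.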
# Biological target: PAK4 (UniProt O96013)
# Experiment: number of time points (of 5) at which kinase-Nluc abundance scored as decreased, DMSO-normalised (count); higher = more persistent destabilization
# Conditions: K562; 2-18 h
row,Compound,number of time points
1,C[C@@H](c1ccc2nccn2c1)n1nnc2ncc(-c3cnn(C)c3)nc21 [Savolitinib] (10 µM),0
2,CN1C(=O)C(Cc2c[nH]c3ccccc23)NC1=S (stereo not drawn) [Necrostatin-1] (10 µM),0
3,C[C@@H]1C(=O)O[C@H](C)[C@H]1C[C@@H](O)[C@](C)(O)[C@H]1CC[C@@]2(O)C3=CC(=O)[C@@H]4C[C@@H](O)[C@@H](O)C[C@]4(C)[C@H]3CC[C@]12C [Cyasterone] (10 µM),0
4,CC(c1ccc(-c2cnc3c(-c4ccc(S(N)(=O)=O)c5ccccc45)cnn3c2)cc1)N1CCCC1 (stereo not drawn) (2.5 µM),0
5,CCn1c(=O)c(-c2ccc(-c3cncc(C)n3)cc2Cl)cc2cnc(NCCC3CCN(C)CC3)nc21 (10 µM),0
6,"O=C(O)c1cc(O)ccc1O [2,5-Dihydroxybenzoic acid] (10 µM)",0
7,CC(=NNC(=O)c1ccc(C)c(Br)c1)c1ccc(O)cc1O [mTOR inhibitor-1] (2.5 µM),0
8,Nc1ncnc2c1ncn2[C@@H]1O[C@H](CO)C[C@H]1O [Cordycepin] (10 µM),0
9,C=CC(=O)Nc1cc2c(Nc3ccc(OCc4ccccn4)c(Cl)c3)ncnc2cc1OCCN1CCOCC1 (10 µM),0
10,Cc1ccc(S(=O)(=O)Nc2ccccc2C=Nc2ccccc2NS(=O)(=O)c2ccc(C)cc2)cc1 (10 µM),0
11,CCOc1cc(C(=O)N2CCC(N3CCN(C)CC3)CC2)ccc1Nc1ncc2c(n1)N(C1CCCC1)c1ccccc1C(=O)N2C (10 µM),0
12,Cn1cnc(-c2cc3nccc(Oc4ccc(NC(=S)NC(=O)Cc5ccccc5)cc4F)c3s2)c1 [MGCD-265 analog] (10 µM),0
13,Cn1c(=O)c(F)c(Nc2ccc(I)cc2F)c2c(=O)n(C[C@@H](O)CO)cnc21 (10 µM),0
14,Nc1ncnc2c1c(-c1ccc(Oc3ccccc3)cc1)nn2C1CCNCC1 [N-piperidine Ibrutinib (hydrochloride)] (10 µM),0
15,Cc1csc(-c2nnc(Nc3ccc(Oc4ncccc4-c4ccnc(N)n4)cc3)c3ccccc23)c1 (2.5 µM),0
16,O=C(O)CCc1ccc(O)c(O)c1 [Dihydrocaffeic acid] (10 µM),0
17,COCCOc1cnc(Sc2cc(C)c(-c3csc(NC(=O)c4ccncc4)n3)c(C)c2)cn1 [T-1101 (tosylate)] (2.5 µM),0
18,Cc1cc(NC(=O)c2cccc(NC(=O)/C=C/CN(C)C)c2)ccc1Nc1nccc(-c2cccnc2)n1 (10 µM),0
19,Cc1c(NC(=O)OC[C@@H]2COCCN2)cn2ncnc(Nc3ccc4c(cnn4Cc4cccc(F)c4)c3)c12 (10 µM),0

row,Compound,number of time points
1,Cc1ccc(-c2c(C(=O)CF)n(CCCO)c3ncnc(N)c23)cc1 (10 µM),0
2,Cc1ccc(-c2c(C(=O)CCl)n(CCCO)c3ncnc(N)c23)cc1 (10 µM),0
3,COc1cc(F)c(F)c(Nc2ccc(I)cc2F)c1NS(=O)(=O)C1(C[C@H](O)CO)CC1 [Refametinib] (10 µM),0
4,CCN(CC)c1ccc2cc(C(=O)N3CCN(C(=O)C4=Cc5c(Br)cccc5S4(=O)=O)CC3)c(=O)oc2c1 (2 µM),0
5,COc1ccc(C(=C2C(=O)Nc3ccccc32)c2ccc(OC)cc2)cc1 (10 µM),0
6,N#Cc1ccc2ncnc(NC3CCC(N4CCOCC4)CC3)c2c1 (stereo not drawn) (10 µM),0
7,NCCN1CCN(C/C=C/C(=O)N2CCC[C@@H](n3nc(-c4ccc(Oc5ccccc5)cc4)c4c(N)ncnc43)C2)CC1 [Ibrutinib-MPEA] (10 µM),0
8,CN(CC(=O)N(Cc1ccc(C2CCCCC2)cc1)c1ccc(C(=O)O)cc1)S(=O)(=O)c1c(F)c(F)c(F)c(F)c1F (2.5 µM),0
9,CCn1c(C(=O)N(C2CC2)C2CC2)cc2c3c(ncn3C)c(Nc3cc(C)n(C)n3)nc21 (10 µM),0
10,CC(C)CN(CC(=O)N1CCN(CC(OCc2ccc3ccccc3c2)c2ccc(Cl)cc2Cl)CC1)CC(C)C (stereo not drawn) [LYN-1604 (dihydrochloride)] (2.5 µM),0
11,COc1ccc2[nH]cc(/C=C3\C(=O)Nc4ccc(NC(=O)CCN5CCCCC5)cc43)c2c1 (2.5 µM),0
12,CC(C)=CC(=O)CCC(=O)N1CCN(Cc2cc3nc(-c4cccc5[nH]ncc45)nc(N4CCOCC4)c3s2)CC1 (10 µM),0
13,O=C(NCCO)c1ccc2c(c1)nc(Nc1cccc(Cl)c1)c1ccncc12 [CK2 inhibitor 2] (10 µM),0
14,COc1ccc(CC(=O)Nc2nc3c(s2)CCc2ccccc2-3)cc1OC (10 µM),0
15,c1cc2c(cc1O[C@H]1OC[C@H]3[C@@H]1CO[C@@H]3c1ccc3c(c1)OCO3)OCO2 [Sesamolin] (10 µM),0
16,OCCNC1CCCc2c1[nH]c1ccc(-c3ccccc3)cc21 (stereo not drawn) (2.5 µM),0
17,CNc1nc(Nc2cnn(C3CCN(C4COC4)CC3F)c2Cl)ncc1C(F)(F)F (stereo not drawn) (10 µM),0
18,Cc1cc2cc(Nc3ccnc(Nc4ccc5[nH]c(C)cc5c4)n3)ccc2[nH]1 (2.5 µM),0
19,CC(C)(C)NC(=O)c1cncn1C1CCN(c2ccc(-c3nnc(C(F)(F)F)o3)cn2)CC1 (10 µM),0

# Look-ups from the entries so far.
# number of time points with `c1cc2c(cc1O[C@H]1OC[C@H]3[C@@H]1CO[C@@H]3c1ccc3c(c1)OCO3)OCO2` [Sesamolin] (10 µM) reads 0
# number of time points with `CCN(CC)c1ccc2cc(C(=O)N3CCN(C(=O)C4=Cc5c(Br)cccc5S4(=O)=O)CC3)c(=O)oc2c1` (2 µM) reads 0
# number of time points with `CN(CC(=O)N(Cc1ccc(C2CCCCC2)cc1)c1ccc(C(=O)O)cc1)S(=O)(=O)c1c(F)c(F)c(F)c(F)c1F` (2.5 µM) reads 0
